For the series the following is noted: aqueous, 25 °C ± 0.1 °C, n=3.

Read-outs that look alike come from different tables or passages of the source.

In the case of `CN(C)CCOC(c1ccccc1)c1ccccc1.Cn1c(=O)c2[nH]c(Cl)nc2n(C)c1=O` [DMH, 2-benzhydryloxy-N,N-dimethylethanamine; 8-chloro-1,3-dimethyl-7H-purine-2,6-dione], the “SCD, concentration of DMH in CD solution” value by setting is: (β-CD 4.40 mmol/L) 17.35 mmol/L; (β-CD 7.49 mmol/L) 19.12 mmol/L; (β-CD 8.81 mmol/L) 19.93 mmol/L; (β-CD 10.57 mmol/L) 21.42 mmol/L; (β-CD 13.21 mmol/L) 22.85 mmol/L; (β-CD 15.86 mmol/L) 25.27 mmol/L. The “SCD, concentration of DMH in CD solution” value worked out at 26.68 mmol/L (β-CD 17.62 mmol/L) and 31.15 mmol/L (β-CD 22.03 mmol/L).

The values are drawn from publication PMC11496845, “Preparation, characterization, and in vitro cytogenotoxic evaluation of a novel dimenhydrinate-β-cyclodextrin inclusion complex” (Biomolecules and Biomedicine, 2024).
